Data on six molecules can be found in patent US20050158838A1.

These are yes or no findings as the source states them, for the method shown. Some results given as binding are weak or reduced against the parent protein; the word gives no strength.

The test deals with streptavidin (immobilized on polystyrene magnetic beads or microtiter wells) (UniProt P22629). The test can be described thus: phage ELISA, phage bound to immobilized streptavidin.

B1: phage isolate 5-A11 display polypeptide (protein, not shown: large carriers)
chain: AEWHPQFSSPSASRPSEGPCHPQFPRCYIENLDEFRPGGSGGDLNDVYSERMAMWGAQSDGGGSTEHAEGGSADPSYIEGRIVGSA
As to B1, the binding result is listed as “binds”.

B2: phage isolate 5-B05 display polypeptide (protein, not shown: large carriers)
chain: AEWHPQFSSPSASRPSEGPCHPQFPRCYIENLDEFRPGGSGGSLDDDRTVSPKFWGAQSDGGGSTEHAEGGSADPSYIEGRIVGSA
For the molecule B2, the binding result is “binds”.

B3: phage isolate 5-A01 display polypeptide (protein, not shown: large carriers)
chain: AEWHPQFSSPSASRPSEGPCHPQFPRCYIENLDEFRPGGSGGDRMYQLDKTGFMIGAQSDGGGSTEHAEGGSADPSYIEGRIVGSA
As for B3, the binding entry was “binds”.

B4: phage isolate 5-A08 display polypeptide (protein, not shown: large carriers)
chain: AEWHPQFSSPSASRPSEGPCHPQFPRCYIENLDEFRPGGSGGDMFSEEDRMMQMQGAQSDGGGSTEHAEGGSADPSYIEGRIVGSA
As to B4, the binding entry is “binds”.

B5: phage isolate 5-H11 display polypeptide ((Asp)4-Lys-containing recognition sequence) (protein, not shown: large carriers)
chain: AEWHPQFSSPSASRPSEGPCHPQFPRCYIENLDEFRPGGSGGMGDDDDKIYVYKTGAQSDGGGSTEHAEGGSADPSYIEGRIVGSA
Regarding B5, the binding entry is listed as “binds”.

B6: phage isolate 5-F08 display polypeptide (unselected control) (protein, not shown: large carriers)
chain: AEWHPQFSSPSASRPSEGPCHPQFPRCYIENLDEFRPGGSGGAVLSNVMHSDDWTGAQSDGGGSTEHAEGGSADPSYIEGRIVGSA
As to B6, the binding entry is listed as “binds”.
